Test results reported in patent publication US20240287178A1.
These are yes or no findings as the source states them, for the method shown. Binding seen in cells or lysates may run through a third protein. Some entries that bind do so weakly or less than the wild type.

Amino acid sequences for entries named in this document (tags omitted). Residues count along the entry.
UniProt O08722, residues 27-945: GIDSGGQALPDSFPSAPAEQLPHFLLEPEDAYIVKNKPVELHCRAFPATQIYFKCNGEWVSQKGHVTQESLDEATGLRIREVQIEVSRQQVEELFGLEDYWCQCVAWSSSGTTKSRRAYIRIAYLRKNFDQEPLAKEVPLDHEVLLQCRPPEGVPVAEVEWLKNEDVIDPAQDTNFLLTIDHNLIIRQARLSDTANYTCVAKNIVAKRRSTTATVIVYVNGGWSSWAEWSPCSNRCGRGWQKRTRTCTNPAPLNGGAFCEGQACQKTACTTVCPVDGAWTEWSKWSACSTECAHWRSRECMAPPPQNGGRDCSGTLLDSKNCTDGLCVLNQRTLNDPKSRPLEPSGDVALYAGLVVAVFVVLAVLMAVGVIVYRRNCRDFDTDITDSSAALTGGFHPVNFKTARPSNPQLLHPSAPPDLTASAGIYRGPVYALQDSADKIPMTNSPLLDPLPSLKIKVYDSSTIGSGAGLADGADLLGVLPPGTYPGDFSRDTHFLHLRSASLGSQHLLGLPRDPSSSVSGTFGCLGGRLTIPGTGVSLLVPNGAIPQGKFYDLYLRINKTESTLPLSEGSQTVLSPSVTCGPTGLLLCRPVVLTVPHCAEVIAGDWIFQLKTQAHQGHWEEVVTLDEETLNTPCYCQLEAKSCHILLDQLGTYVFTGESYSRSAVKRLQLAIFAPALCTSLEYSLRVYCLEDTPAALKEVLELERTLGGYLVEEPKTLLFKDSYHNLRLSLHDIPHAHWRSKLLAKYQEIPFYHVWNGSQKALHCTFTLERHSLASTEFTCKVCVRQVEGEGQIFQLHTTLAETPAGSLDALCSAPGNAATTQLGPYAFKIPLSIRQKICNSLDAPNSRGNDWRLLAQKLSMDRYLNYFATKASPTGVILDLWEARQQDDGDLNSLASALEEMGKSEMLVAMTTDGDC

Target: T1, Claudin5 in porcine aortic endothelial cells (PAECs) (Sus scrofa) (UniProt C3VML1)
T1 sequence: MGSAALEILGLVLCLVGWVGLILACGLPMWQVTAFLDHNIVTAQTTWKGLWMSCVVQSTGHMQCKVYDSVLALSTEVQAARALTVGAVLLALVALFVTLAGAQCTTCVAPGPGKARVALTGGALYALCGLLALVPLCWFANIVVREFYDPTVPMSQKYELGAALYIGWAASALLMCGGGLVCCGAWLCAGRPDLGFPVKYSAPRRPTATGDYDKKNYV
Assay: co-immunoprecipitation from PAECs transfected with rat Unc5B-GFP

“rat Unc5B coupled to GFP, in transfected porcine aortic endothelial cells (PAECs) (from UniProt O08722 27-945) (receptor)” was tested, and the binding was “binds”.
